The results in this text go back to paper PMC10625159.

Amino acid sequences for entries named in this document (tags omitted).
UniProt P62627: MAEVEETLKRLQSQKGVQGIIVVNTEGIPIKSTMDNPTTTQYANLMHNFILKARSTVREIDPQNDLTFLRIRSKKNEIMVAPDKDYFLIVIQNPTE
UniProt Q9JHU4: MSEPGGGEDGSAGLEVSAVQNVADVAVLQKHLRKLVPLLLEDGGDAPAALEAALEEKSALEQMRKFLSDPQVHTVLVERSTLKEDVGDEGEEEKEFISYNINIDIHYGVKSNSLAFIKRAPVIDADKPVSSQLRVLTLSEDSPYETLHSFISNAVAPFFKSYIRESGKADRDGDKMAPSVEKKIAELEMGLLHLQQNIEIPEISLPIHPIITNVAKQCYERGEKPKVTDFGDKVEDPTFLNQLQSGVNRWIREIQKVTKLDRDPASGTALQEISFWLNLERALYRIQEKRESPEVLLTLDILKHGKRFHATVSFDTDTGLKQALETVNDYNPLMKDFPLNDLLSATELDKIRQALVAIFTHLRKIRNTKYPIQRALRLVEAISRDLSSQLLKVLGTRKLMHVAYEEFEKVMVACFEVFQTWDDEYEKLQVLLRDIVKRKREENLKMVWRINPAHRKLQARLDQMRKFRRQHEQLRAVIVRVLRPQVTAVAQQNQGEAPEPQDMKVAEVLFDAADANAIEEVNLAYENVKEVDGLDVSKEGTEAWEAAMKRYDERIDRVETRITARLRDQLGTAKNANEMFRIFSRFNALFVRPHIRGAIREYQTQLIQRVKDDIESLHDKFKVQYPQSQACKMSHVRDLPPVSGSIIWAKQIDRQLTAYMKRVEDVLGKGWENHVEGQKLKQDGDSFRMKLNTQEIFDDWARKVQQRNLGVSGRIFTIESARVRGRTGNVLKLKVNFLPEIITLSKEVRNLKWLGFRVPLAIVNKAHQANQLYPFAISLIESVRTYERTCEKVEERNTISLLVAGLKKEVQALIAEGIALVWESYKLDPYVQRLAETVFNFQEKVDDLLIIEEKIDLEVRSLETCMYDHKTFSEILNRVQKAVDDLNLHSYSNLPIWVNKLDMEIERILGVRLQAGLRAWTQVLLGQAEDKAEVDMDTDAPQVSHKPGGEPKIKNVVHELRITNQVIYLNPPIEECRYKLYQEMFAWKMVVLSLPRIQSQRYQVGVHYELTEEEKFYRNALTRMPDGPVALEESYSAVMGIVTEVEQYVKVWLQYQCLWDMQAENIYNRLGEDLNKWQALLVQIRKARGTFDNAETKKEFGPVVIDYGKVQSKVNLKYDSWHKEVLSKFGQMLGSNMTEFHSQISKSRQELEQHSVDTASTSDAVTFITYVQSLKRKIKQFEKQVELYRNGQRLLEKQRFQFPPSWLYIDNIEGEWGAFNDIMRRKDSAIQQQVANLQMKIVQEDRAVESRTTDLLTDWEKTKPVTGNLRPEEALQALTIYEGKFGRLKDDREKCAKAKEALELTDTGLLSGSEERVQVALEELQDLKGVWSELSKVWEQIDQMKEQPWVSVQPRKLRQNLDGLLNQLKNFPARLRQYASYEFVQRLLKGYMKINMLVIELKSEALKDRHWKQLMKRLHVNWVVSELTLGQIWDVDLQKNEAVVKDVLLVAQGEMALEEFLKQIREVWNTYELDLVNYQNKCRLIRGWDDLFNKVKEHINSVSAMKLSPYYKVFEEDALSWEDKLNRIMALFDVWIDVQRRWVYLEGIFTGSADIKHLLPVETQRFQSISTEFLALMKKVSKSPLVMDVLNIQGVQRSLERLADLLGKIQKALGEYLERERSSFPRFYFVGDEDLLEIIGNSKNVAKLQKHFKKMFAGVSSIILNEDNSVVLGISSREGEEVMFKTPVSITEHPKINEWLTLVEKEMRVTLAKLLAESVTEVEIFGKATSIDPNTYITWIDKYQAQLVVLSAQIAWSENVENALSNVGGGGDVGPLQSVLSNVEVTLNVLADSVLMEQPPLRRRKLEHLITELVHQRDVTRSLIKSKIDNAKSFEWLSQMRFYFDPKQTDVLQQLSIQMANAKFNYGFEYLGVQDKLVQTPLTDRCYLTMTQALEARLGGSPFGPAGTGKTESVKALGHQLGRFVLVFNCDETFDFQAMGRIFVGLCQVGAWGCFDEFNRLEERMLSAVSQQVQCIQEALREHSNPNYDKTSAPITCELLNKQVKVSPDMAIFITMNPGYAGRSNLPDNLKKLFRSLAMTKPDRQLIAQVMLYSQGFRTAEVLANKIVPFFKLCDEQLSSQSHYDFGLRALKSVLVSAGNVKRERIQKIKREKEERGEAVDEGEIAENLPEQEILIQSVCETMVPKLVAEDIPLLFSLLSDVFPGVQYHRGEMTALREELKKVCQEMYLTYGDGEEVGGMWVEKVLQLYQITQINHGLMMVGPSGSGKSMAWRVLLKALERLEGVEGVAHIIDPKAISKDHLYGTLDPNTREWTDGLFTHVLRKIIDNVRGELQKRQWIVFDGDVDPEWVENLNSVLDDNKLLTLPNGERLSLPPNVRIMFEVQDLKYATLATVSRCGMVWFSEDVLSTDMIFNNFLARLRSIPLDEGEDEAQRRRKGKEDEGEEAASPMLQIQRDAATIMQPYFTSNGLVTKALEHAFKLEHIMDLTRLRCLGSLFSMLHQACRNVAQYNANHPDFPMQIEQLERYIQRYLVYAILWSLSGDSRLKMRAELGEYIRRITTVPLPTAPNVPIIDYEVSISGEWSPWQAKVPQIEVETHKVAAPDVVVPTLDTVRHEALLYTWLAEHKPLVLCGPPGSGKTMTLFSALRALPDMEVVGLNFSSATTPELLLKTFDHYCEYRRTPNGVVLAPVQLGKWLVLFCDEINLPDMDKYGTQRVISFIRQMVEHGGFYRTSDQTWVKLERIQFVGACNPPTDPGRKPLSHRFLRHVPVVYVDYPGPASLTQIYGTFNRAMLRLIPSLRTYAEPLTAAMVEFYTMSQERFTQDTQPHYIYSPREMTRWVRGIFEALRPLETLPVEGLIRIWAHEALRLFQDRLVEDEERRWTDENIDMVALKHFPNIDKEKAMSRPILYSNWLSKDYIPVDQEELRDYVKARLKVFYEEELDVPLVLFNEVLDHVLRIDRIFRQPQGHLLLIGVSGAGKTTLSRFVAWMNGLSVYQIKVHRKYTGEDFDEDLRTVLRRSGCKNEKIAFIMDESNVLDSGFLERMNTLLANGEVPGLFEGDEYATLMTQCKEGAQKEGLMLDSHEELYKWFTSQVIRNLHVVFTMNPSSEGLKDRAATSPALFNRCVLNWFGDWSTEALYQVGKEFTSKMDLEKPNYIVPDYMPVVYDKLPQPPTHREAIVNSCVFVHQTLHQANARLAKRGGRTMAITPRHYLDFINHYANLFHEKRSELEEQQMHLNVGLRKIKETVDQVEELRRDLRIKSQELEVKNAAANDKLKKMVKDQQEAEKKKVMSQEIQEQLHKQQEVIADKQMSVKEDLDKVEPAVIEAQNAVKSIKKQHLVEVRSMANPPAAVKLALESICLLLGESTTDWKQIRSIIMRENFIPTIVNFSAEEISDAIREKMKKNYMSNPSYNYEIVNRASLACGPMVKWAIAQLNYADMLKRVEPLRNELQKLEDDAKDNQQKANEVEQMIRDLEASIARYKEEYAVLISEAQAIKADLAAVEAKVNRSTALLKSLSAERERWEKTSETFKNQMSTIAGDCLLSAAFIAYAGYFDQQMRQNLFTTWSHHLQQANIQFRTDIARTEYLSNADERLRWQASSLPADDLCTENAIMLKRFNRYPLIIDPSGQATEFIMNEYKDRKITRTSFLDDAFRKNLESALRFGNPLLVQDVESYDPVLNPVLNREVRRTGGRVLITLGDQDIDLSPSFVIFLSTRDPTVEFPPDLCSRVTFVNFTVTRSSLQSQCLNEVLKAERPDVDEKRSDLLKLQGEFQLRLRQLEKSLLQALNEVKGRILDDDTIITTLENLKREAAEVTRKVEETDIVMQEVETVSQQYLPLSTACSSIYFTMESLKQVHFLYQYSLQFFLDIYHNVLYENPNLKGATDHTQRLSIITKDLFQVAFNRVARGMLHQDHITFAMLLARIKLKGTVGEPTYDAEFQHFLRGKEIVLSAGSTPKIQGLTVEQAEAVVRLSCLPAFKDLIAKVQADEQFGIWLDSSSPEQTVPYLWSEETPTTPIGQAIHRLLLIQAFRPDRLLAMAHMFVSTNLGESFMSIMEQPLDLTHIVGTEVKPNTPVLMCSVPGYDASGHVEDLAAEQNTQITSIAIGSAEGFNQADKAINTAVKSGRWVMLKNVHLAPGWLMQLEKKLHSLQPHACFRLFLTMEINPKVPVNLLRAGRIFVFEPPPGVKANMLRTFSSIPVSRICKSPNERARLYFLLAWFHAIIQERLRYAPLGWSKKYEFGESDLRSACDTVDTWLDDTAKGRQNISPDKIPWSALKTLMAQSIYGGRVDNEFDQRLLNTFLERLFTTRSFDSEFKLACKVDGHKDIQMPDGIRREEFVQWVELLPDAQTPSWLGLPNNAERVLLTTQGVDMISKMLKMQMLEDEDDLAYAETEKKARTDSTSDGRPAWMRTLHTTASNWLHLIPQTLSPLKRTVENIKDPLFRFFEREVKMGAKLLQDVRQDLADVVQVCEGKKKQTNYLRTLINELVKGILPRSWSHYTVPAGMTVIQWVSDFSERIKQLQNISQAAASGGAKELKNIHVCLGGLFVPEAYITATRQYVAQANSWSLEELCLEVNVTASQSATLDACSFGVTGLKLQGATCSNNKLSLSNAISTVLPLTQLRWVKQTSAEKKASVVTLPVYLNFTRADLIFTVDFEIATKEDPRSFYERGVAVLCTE

Assay [1] deals with MnT–Dynlrb1 (flag-tagged miniTurbo fused to the N-terminus of dynein light chain roadblock 1), expressed in DRG neurons (mouse) (UniProt P62627). Briefly: proximity ligation; semiendogenous Duolink PLA in fixed cultured DRG neurons transduced with AAV MnT–Dynlrb1 or MnT-control; anti-flag with an antibody to the endogenous partner; cell bodies and axons quantified separately.
Assay [2] has the same target. Described as above. The source holds these as a separate data set.

Like-named read-outs stand apart in the source and are kept apart here. Results are given in words; binding and its absence hold for the method and conditions named. In cells and extracts the contact can be indirect. Some entries that bind do so weakly or less than the wild type.

For the molecule “dynein heavy chain (Dync1h1) (from UniProt Q9JHU4 1-4644)”, the binding entry in assay [1] is on record as “binds”.

B1: vacuolar protein sorting–associated protein VTA1 homolog (Vta1) (protein, UniProt Q9CR26 1-309)
chain: MAALAPLPPLPAQFKSIQHHLRTAQEHDKRDPVVAYYCRLYAMQTGMKIDSKTPECRKFLSKLMDQLEALKKQLGDNEAVTQEIVGCAHLENYALKMFLYADNEDRAGRFHKNMIKSFYTASLLIDVITVFGELTDENVKHRKYARWKATYIHNCLKNGETPQAGPVGIEEENDVEENEDVGATSLPTQPPQPSSSSAYDPSNLAPGSYSGIQIPPGAHAPANTPAEVPHSTGVTSNAVQPSPQTVPAAPAVDPDLYTASQGDIRLTPEDFARAQKYCKYAGSALQYEDVGTAVQNLQKALRLLTTGRE
For B1, in assay [2], the binding entry was “binds”.
